# Measured values: paper PMC12040169 (PLOS Biology, 2025)
# Some of the results follow.
# Test system: T1, CTL2-GFP (C. trachomatis L2/434/Bu, GFP-expressing)
# T1 construct: L2/434/Bu, GFP-expressing
# Design: species or system HeLa; Intracellular C. trachomatis growth in HeLa cells, bulk GFP fluorescence relative to DMSO
# Details: bulk GFP, single well; 28.5 h, 10 µM; inhibitor
row,Compound,% of control remaining [%]
1,c1ccc(-c2nnc(SCc3nnc(-c4ccccc4)o3)[nH]2)cc1 [CBK270003],109.105
2,COCc1cccc(-c2ncc(OCCN3CCCC3=O)nc2N)c1 [CBK145110],110.018
3,COc1cccc(Cc2cccc(C3CCN(C(=O)Cc4ccccc4)CC3)n2)c1 [CBK286147],109.261
4,Cc1cc(C(F)(F)F)n2ncc(C(=O)N3CCCC3c3ccco3)c2n1 (stereo not shown) [CBK306557],94.6172
5,c1ccc(-c2nc(C3CC3)n3ccccc23)cc1 [CBK149257],123.643
6,O=C1NC2(CCOCC2)C(=O)N1Cc1ncc(-c2cccs2)o1 [CBK304187],131.395
7,Cc1ccc(S(N)(=O)=O)cc1C(=O)OCC(=O)c1ccccc1 [CBK264588],90.1657
8,C=C(C)Cn1c(=O)nc(N)c2c3c(sc21)CCC3 [CBK287986],117.075
9,O=S(=O)(CC(F)(F)F)Nc1cccc(-c2nnn[nH]2)c1 [CBK154272],109.23
10,CCCCCCN1CCC2CN(CCCC(=O)c3ccc(F)cc3)CCN2C1=O (stereo not shown) [CBK024890C],124.486
11,Cc1csc(-c2cn3ccnc3c(N(C)CCN(C)C)n2)c1 [CBK066553],190.938
12,Cn1c(SCC(=O)c2ccccc2)nnc1-c1ccc(NC(=O)c2ccccc2Cl)cc1 [CBK264357],134.275
13,CC1=C[C@@H](CNC(=O)c2ccncc2)[C@H](C(C)C)C[C@H]1CC(=O)N1CCOCC1 [CBK289052],134.044
14,Cc1nn(C)c2nc(NCc3ccc(C(=O)N4CCCCC4)cc3)sc12 [CBK306826],109.992
15,O=C(CCc1cccnc1)N1CCCCC1c1nc2cc(F)ccc2[nH]1 (stereo not shown) [CBK291106],85.744
16,COC(=O)CCC1(C)CN(C)CCC1=O (stereo not shown) [CBK028494],128.192
17,CC(C)(CN)CN(Cc1ccccc1C(F)(F)F)C(=O)NCc1ccc(F)cc1 [CBK002471C],105.937
18,Cc1ccccc1Cc1cccc(C2CCN(C(=O)Cc3ccccc3)CC2)n1 [CBK285625],123.052
19,O=C(Cc1cccnc1)N1CCC(Cc2ccccc2)CC1 [CBK200183],161.033
20,O=C(O)c1nccnc1C(=O)N1CCC(O)(c2ccc(Cl)cc2)CC1 [CBK286621],123.33
21,Cn1c(=O)n(C)c2cc(NC3=NS(=O)(=O)c4ccccc43)ccc21 [CBK270210],107.144
22,Cc1nc(SCCn2cccn2)c2c(=O)n(C)c(=O)n(CC(C)C)c2n1 [CBK306321],101.469
23,CSCCCNC(=O)N1CCCCC1CO (stereo not shown) [CBK156163],109.395
24,CCn1cc(CN2CCCC(c3cc4cccnc4[nH]3)C2)c(C)n1 (stereo not shown) [CBK284701],109.499
25,COc1ccc(Nc2nc(-c3ccccc3)c(C)s2)c(OC)c1 [CBK131709],94.2135
26,COc1ccc(N(CCN2CCCCC2)S(=O)(=O)c2ccc(C)cc2)cc1 [CBK261131],100
27,Cc1onc(-c2ccccc2)c1C(=O)Nc1ccc(N2CCNCC2)c2ccccc12 [CBK038942T],124.58

# In the list so far, these contain four or more nitrogen atoms:
row,Compound,% of control remaining [%]
1,c1ccc(-c2nnc(SCc3nnc(-c4ccccc4)o3)[nH]2)cc1 [CBK270003],109.105
2,COCc1cccc(-c2ncc(OCCN3CCCC3=O)nc2N)c1 [CBK145110],110.018
4,Cc1cc(C(F)(F)F)n2ncc(C(=O)N3CCCC3c3ccco3)c2n1 (stereo not shown) [CBK306557],94.6172
9,O=S(=O)(CC(F)(F)F)Nc1cccc(-c2nnn[nH]2)c1 [CBK154272],109.23
11,Cc1csc(-c2cn3ccnc3c(N(C)CCN(C)C)n2)c1 [CBK066553],190.938
12,Cn1c(SCC(=O)c2ccccc2)nnc1-c1ccc(NC(=O)c2ccccc2Cl)cc1 [CBK264357],134.275
14,Cc1nn(C)c2nc(NCc3ccc(C(=O)N4CCCCC4)cc3)sc12 [CBK306826],109.992
15,O=C(CCc1cccnc1)N1CCCCC1c1nc2cc(F)ccc2[nH]1 (stereo not shown) [CBK291106],85.744
21,Cn1c(=O)n(C)c2cc(NC3=NS(=O)(=O)c4ccccc43)ccc21 [CBK270210],107.144
22,Cc1nc(SCCn2cccn2)c2c(=O)n(C)c(=O)n(CC(C)C)c2n1 [CBK306321],101.469
24,CCn1cc(CN2CCCC(c3cc4cccnc4[nH]3)C2)c(C)n1 (stereo not shown) [CBK284701],109.499
27,Cc1onc(-c2ccccc2)c1C(=O)Nc1ccc(N2CCNCC2)c2ccccc12 [CBK038942T],124.58

# (list continues)

row,Compound,% of control remaining [%]
1,COc1ccc(C(=O)/C=C/Nc2ccc(S(=O)(=O)NC(=N)N)cc2)cc1 [CBK262277],127.766
2,Cn1cc(CCCC(=O)NC2CCCOC2)c2ccccc21 (stereo not shown) [CBK282486],136.244
3,CCN(CC)C(=O)NC(c1ccccc1OC)c1nccn1C (stereo not shown) [CBK283803],130.266
4,CN(C)CCN(C)c1cc(-c2cccc(-c3ccccc3)c2)ncn1 [CBK037763],205.243
5,Cc1nn(Cc2ccccc2)c(C)c1CC(=O)NCCn1ccnc1 [CBK282095],127.574
6,CCOC(=O)Cc1csc(SC(C)C(=O)N2CCCc3ccccc32)n1 (stereo not shown) [CBK304228],131.48
7,CN1CCC(N2CCN(C(=O)c3ccc4nc[nH]c4c3)CC2)CC1 [CBK149099],113.906
8,COc1ccc(Nc2ncc(C(=O)NCCCN3CCCC3)c3ccccc23)cc1 [CBK291114],98.1127
9,Oc1ccc2[nH]cc(CCNC(c3ccccc3)(c3ccccc3)c3ccccc3)c2c1 [CBK260891],66.2745
10,COC(=O)c1cc(C#N)c(=O)n(CC(O)COc2c(C)cccc2C)c1 (stereo not shown) [CBK305709],117.046
11,Cc1c(-c2ccc(Cl)cc2Cl)nc2ccccc2c1C(=O)NCCCc1ccccc1 [CBK262635],80.7101
12,CC1(C)NC(=O)N(CC(O)CNC23CC4CC(CC(C4)C2)C3)C1=O (stereo not shown) [CBK264823],131.605
13,CCOC(=O)c1[nH]c2ccccc2c1NC(=O)CS(=O)(=O)c1ccc(C)cc1 [CBK160162],146.367
14,COc1ncc(-c2cnc3[nH]c(=O)n([C@H](C)c4ccccc4)c3n2)cn1 [CBK064401],89.5188
15,CC(c1ccc(Cl)cc1Cl)N(C)C(=O)c1ccc(S(C)(=O)=O)cc1 (stereo not shown) [CBK242418],109.351
16,CN(C)c1ccc(C2C(C(=O)c3ccccc3)=C(O)C(=O)N2CCCC(=O)O)cc1 (stereo not shown) [CBK263393],117.894
17,CCn1c(C(C)Oc2ccc(Cl)cc2)n[nH]c1=S (stereo not shown) [CBK015099],105.471
18,Nc1ccccc1SC(CC(=O)c1ccccc1)c1ccc2c(c1)OCO2 (stereo not shown) [CBK074823],100.139
19,NC(=O)c1ccccc1NC(=O)CCN1C(=O)c2cccc([N+](=O)[O-])c2C1=O [CBK263118],91.1468
20,C=C(C)CN1CCN(C(=O)c2ccnc3ccc(Cl)cc23)CC1 [CBK282617],89.5298
21,Cc1nc(S(=O)(=O)N2CCOC3(CCCC3)C2)cn1C [CBK304834],87.0559
22,CC(C)c1ccc(NS(=O)(=O)c2ccc(F)c(C(=O)O)c2)cc1 [CBK297940],155.509
23,Fc1ccc(CCN2CCC(c3nc(-c4cccnc4)no3)CC2)cc1 [CBK051464],125.145
24,Cc1cccc(OCC(=O)NC(=S)Nc2cccc(C(=O)O)c2C)c1 [CBK265067],88.259
25,O=C(O)c1ccc(S(=O)(=O)NCc2ccccc2)cc1 [CBK262093],100
26,O=C(Cn1c(-c2ccco2)cc2cccnc21)N1CCCC1 [CBK282683],108.438
27,Cc1nc(CN2CCN(c3ccc4nnc(C(F)(F)F)n4n3)CC2)cs1 [CBK239750],151.708

row,Compound,% of control remaining [%]
1,COc1cccc2ncn(CCCc3c(C)n[nH]c3C)c(=O)c12 [CBK307153],107.822
2,OCCOc1ncnc2ccccc12 [CBK001412],120.528
3,COc1ccc(C(C)C)cc1-c1nccnc1NCCc1c[nH]c2ccccc12 [CBK036650],161.952
4,CC(C)c1csc(CNC(=O)NC2CCCN(c3ccn(C)n3)C2=O)n1 (stereo not shown) [CBK304447],121.851
5,Cc1[nH]c(=O)c(S(=O)(=O)c2ccccc2)c(C)c1Cl [CBK018736],115.346
6,O=C(CCC1CCCC1)n1ccn(-c2ccc3c(c2)OCO3)c1=O [CBK106631],103.842
7,O=C(C1=C(O)C(=O)N(CCCn2ccnc2)C1c1cccc([N+](=O)[O-])c1)c1ccc(F)cc1 (stereo not shown) [CBK264571],100
8,CC(=O)Nc1ccc(S(=O)(=O)N2CC[C@H](c3nc4ccccc4o3)C2)cc1 [CBK289373],137.388
9,Cc1ccc(Cl)cc1NC(=O)c1cc(NC(=O)C2CCCCC2C(=O)O)ccc1N1CCCCC1 (stereo not shown) [CBK268371],113.954
10,Cn1nc(-c2ccc(S(=O)(=O)Nc3nnc(C(F)(F)F)s3)s2)cc1C(F)(F)F [CBK062017],109.23
11,COc1cc(Nc2cncc(-c3ccc(O)cc3)n2)c(Cl)cc1C(=O)NCC(F)(F)F [CBK126470],135.275
12,O=C(Nc1nnc(-c2ccncc2)o1)c1ccc(F)cc1 [CBK287431],132.619
13,COc1ccc(C(=O)N2CCC3(CCCN(C(=O)c4c(F)cccc4F)C3)C2)cc1OC (stereo not shown) [CBK131669],86.5936
14,O=C(NC1CCCC1)c1ccc2c(c1)OCO2 [CBK002177],129.969
15,CN1CCN(NC(=O)CSc2ccccc2)CC1 [CBK268142],113.048
16,COc1ccc(C2NCCc3c2[nH]c2ccccc32)cc1CN1CCN(c2ccc(F)cc2)CC1 (stereo not shown) [CBK264178C],100.475
17,CC1SC(c2cc3ccccc3o2)N(c2ccc(F)cc2F)C1=O (stereo not shown) [CBK006917],98.6689
18,COc1ccccc1CCCNC(=O)CC1CCCCN1C (stereo not shown) [CBK282694],101.782
19,CC(C)NC(=S)N1CC[C@@]2(NC(N)=O)N=C(N)O[C@H]2C1 [CBK010049],156.464
20,C[C@@H]1CN(C(=O)OCCc2ccsc2)C[C@H](C)O1 [CBK200417],118.833
21,O=C(COc1ccc(Br)cc1)Nc1ccc(CN2CCCCC2)cc1 [CBK266181],160.361
22,Cc1cc(C)n(CC2CN(C(C)C(=O)NCc3ccco3)CCO2)n1 (stereo not shown) [CBK305351],122.947
23,O=S1(=O)Cc2ccccc2C(Oc2cncc(N3CCNCC3)n2)C1 (stereo not shown) [CBK172344T],140.201
24,CN(C)Cc1cnn(-c2ccc(Oc3ccccc3)cc2)n1 [CBK112865],126.174
25,CCc1ccc(/C=C2/SC(=S)N(CCC(=O)O)C2=O)cc1 [CBK263390],111.222

# 3 structures from above, sorted by heavy-atom count, falling:
row,Compound,% of control remaining [%]
11,COc1cc(Nc2cncc(-c3ccc(O)cc3)n2)c(Cl)cc1C(=O)NCC(F)(F)F [CBK126470],135.275
3,COc1ccc(C(C)C)cc1-c1nccnc1NCCc1c[nH]c2ccccc12 [CBK036650],161.952
20,C[C@@H]1CN(C(=O)OCCc2ccsc2)C[C@H](C)O1 [CBK200417],118.833
